# Some results were stated once for a whole list of compounds, not compound by compound.
# Molecular target: T1, fresh or aggregated α-synuclein (Homo sapiens, UniProt P37840)
# T1 construct: made in house; host or cells: Escherichia coli
# Experiment: ELISA: binding of biotinylated peptides to coated α-synuclein
# Settings: for binding to aggregated versus fresh α-synuclein: range of peptide concentrations, α-synuclein coated at 200 pmol/well, FIG. 3; for binding to coated fresh and aggregated α-synuclein: α-synuclein coated 20-200 pmol/well, peptides 200 pmol/well, FIG. 2
# Method: Various concentrations of fresh, or aggregated α-synuclein solutions (20-200 pmol/well) were coated on a microtiter plate to dry overnight at 37° C. Aggregated α-synuclein was therefore fixed to the microtiter plate. Aggregated α-synuclein was produced either by aging, dopamine treatment or nitration as indicated on the figures. After washing with PBS containing 0.05% Tween-20 (PBST) and blocking with blocking buffer (PBS containing 2.5% gelatin and 0.05% Tween-20), the biotinylated peptides (200 pmol/well in PBS) or BSA protein (negative control) were added and incubated for 1.5 hrs at room temperature (RT).
# Binding of peptides to α-synuclein was quantified using enzyme-linked avidin. Briefly, the plates were washed three times with PBST before the addition of 100 μl/well of extravidin peroxidase diluted at 1:5,000 in blocking buffer. Plates were then washed three times with PBST before the addition of TMB peroxidase substrate. Plates were left for 15 minutes at RT for colour to develop. The reaction was stopped by addition 100 μl/well of 0.5M sulphuric acid and the plates were read at 450 nm in a spectrophotometer.
# The effect of peptide concentration on binding to a fixed concentration of α-synuclein was tested by coating microtiter plates as above with 100 or 200 pmol/well of α-synuclein. […] The lowest binding concentration detected for both peptides was 10 pmol/well. […] The lowest binding concentration detected for all three peptides was 10 pmol/well. The binding properties of peptides 6 & 7 to coated fresh or aged α-synuclein were also tested. The binding for peptides 6&7 was detectable when aggregated α-synuclein was coated at 500 pmol/well (data not shown).
# The lowest binding concentration detected for dopamine treated α-synuclein was 1 pmol/well. Dopamine treated and nitrated α-synuclein are physiological approximations of the soluble aggregates (or adducts) present during the early stages of synucleinopathic diseases.
substance,measurement,setting,value
Gd-DOTA-rGtvvaGK(biotin)-rrrrrr [OR1],binding to aggregated versus fresh α-synuclein,,"bind more effectively to preformed α-synuclein aggregates than unaggregated, fresh α-synuclein"
same,binding to coated fresh and aggregated α-synuclein,listed as peptide OR1,"bind more effectively to preformed α-synuclein aggregates than unaggregated, fresh α-synuclein"
Gd-DOTA-rGvvaGK(biotin)-rrrrrr [OR2],binding to aggregated versus fresh α-synuclein,,"bind more effectively to preformed α-synuclein aggregates than unaggregated, fresh α-synuclein"
same,binding to coated fresh and aggregated α-synuclein,listed as peptide OR2,"bind more effectively to preformed α-synuclein aggregates than unaggregated, fresh α-synuclein"
Gd-DOTA-rrrrrrGtvvaGK(biotin)-r [OR3],binding to aggregated versus fresh α-synuclein,listed as Peptide OR3,highly specific binding to aggregated α-synuclein
same,binding to aggregated versus fresh α-synuclein,listed as peptide OR3,"bind more effectively to preformed α-synuclein aggregates than unaggregated, fresh α-synuclein"
same,binding to coated fresh and aggregated α-synuclein,listed as peptide OR3,"bind more effectively to preformed α-synuclein aggregates than unaggregated, fresh α-synuclein"
Gd-DOTA-rrrrrrGvvaGK(biotin)-r [OR4],binding to aggregated versus fresh α-synuclein,listed as Peptide OR4,highly specific binding to aggregated α-synuclein
same,binding to aggregated versus fresh α-synuclein,listed as peptide OR4,"bind more effectively to preformed α-synuclein aggregates than unaggregated, fresh α-synuclein"
same,binding to coated fresh and aggregated α-synuclein,listed as peptide OR4,"bind more effectively to preformed α-synuclein aggregates than unaggregated, fresh α-synuclein"

# Source: US8613905B2, “Diagnostic agent” (United Arab Emirates University, priority 2007, dated 2013)
